From PMC8327742 (Haematologica, 2021) come the findings set out here.

Like-named read-outs stand apart in the source and are kept apart here.

Test [1] relates to EBF1-PDGFRB. Particulars: Ba/F3 cells with mutant fusion; cell viability read-out; gatekeeper; stated gain.
For test [2], the system named is EBF1-PDGFRB. Kind of test: viability assay of transformed Ba/F3 cells. It is filed as cell-based, Homo sapiens. Particulars: Ba/F3 cells with wild-type fusion; cell viability read-out.

Usually IC50 stands for the concentration needed to halve the response being measured. For the compound `Cc1ccc(NC(=O)c2ccc(CN3CCN(C)CC3)cc2)cc1Nc1nccc(-c2cccnc2)n1` [imatinib], the values for the half-maximal inhibitory concentration (IC50) with EBF1-PDGFRB [1] and in the test with EBF1-PDGFRB [2] were 602.5 nM and 15.74 nM, respectively.
